Results from publication PMC9159632.
These are yes or no findings as the source states them, for the method shown. Binding seen in cells or lysates may run through a third protein. These calls come from enrichment with a bait or labelling near it, and not all partners need be listed.

Chains of the proteins cited; added tags and fusions are not shown. Lines headed by an entry give the natural chain unless they say otherwise; changes in a name come on top.
UniProt I7MM25: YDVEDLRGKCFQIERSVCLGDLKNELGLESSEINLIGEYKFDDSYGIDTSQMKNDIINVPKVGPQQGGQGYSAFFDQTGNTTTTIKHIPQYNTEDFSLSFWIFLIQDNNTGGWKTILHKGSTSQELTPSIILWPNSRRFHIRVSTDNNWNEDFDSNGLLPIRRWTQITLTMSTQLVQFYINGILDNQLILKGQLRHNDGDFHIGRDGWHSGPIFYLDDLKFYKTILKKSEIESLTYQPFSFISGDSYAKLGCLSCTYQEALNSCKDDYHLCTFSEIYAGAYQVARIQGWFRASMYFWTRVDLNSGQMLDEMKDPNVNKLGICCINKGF
UniProt W7X454: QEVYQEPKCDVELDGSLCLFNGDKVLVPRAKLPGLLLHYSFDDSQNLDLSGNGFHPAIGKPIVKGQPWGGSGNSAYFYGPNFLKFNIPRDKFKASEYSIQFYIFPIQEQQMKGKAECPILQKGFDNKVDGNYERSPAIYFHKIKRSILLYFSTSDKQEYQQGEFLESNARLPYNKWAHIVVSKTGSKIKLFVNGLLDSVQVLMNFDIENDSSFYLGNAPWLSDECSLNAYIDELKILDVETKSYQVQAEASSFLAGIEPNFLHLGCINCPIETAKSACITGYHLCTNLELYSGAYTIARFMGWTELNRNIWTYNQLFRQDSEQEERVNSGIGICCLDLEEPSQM
UniProt W7XFY1: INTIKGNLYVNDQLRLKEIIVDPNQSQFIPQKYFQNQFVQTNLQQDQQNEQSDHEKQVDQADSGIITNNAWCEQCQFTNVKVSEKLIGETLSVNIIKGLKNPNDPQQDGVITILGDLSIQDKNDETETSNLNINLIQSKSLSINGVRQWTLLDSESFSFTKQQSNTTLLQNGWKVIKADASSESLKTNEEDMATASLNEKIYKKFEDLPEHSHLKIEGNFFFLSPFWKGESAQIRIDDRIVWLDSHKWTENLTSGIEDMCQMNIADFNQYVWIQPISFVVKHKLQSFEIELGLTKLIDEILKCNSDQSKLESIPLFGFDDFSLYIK
UniProt Q24G74: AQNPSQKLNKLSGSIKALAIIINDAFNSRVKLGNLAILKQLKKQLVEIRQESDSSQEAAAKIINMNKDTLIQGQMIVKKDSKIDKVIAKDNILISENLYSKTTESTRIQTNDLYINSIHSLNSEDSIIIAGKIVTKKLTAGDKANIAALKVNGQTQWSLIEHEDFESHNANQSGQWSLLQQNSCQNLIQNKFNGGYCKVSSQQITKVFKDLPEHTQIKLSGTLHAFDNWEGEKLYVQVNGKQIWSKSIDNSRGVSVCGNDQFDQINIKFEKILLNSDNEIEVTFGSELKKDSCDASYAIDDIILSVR
UniProt Q23DF8: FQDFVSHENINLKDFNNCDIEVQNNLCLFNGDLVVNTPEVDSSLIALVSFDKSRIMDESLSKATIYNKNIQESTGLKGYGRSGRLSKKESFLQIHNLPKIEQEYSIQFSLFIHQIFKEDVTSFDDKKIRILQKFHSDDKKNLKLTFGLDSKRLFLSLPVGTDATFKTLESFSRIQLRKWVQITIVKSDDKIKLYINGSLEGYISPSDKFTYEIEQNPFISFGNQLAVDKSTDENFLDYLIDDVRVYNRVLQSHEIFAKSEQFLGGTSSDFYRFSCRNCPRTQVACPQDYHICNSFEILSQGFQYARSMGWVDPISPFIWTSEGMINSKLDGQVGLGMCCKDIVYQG

target: Mdl1p-FLAG (Mucocyst Discharge with a LamG domain protein, FLAG-tagged) (Tetrahymena thermophila) (UniProt I7MM25); experiment: affinity purification with mass spectrometry; cryopowders of Mdl1p-FLAG-expressing and WT cells solubilized in 20 mM HEPES, 250 mM NaCl, 0.5% Triton X-100; anti-FLAG beads, 4°C; washes with 500 mM NaCl, 0.1% NP-40; eluted with LDS sample buffer; LC-MS/MS, label-free quantification; duplicates

binding | Molecule
binds | TTHERM_000193469 (from UniProt W7X454)
binds | TTHERM_000486279 (from UniProt W7XFY1)
binds | TTHERM_01213910 (from UniProt Q24G74)
binds | TTHERM_00047330 (from UniProt Q23DF8)
binds | TTHERM_00141040 (protein, UniProt I7MI22 1-660) MTTDEAPIKWTGFCIDASAMQSPININGPFSFMSMDLDIIFRQIDSGQSYLQNVNNELVIKGDFGYISQDSTIFSSYEIAFKSPSEHSVGNSQTFFPLEMQVKFVSASQSKLNMAFLFSYGEESDFLNRLGFGRGVLRNLQQNQNFEIPQAFNLQHVLPSKNKFFIYKGSDTMPPCEPTIWLIGYDTLKLTQAQLSDFPTSLSYQGRDTQKKKQEIFINFNIEKEEEKKDEQEQQEDQLEELNSTDQNLHDQYNQQQVNLLNKIKDSFILLGDSTIYDPFVYGHDSEPSAKFIKDTDYIVIQKEKPDLNKMKEQVEIEEIIFEKLRDDQKARQDKIDETNNKQEYVPDKNNEQSQPDKDEKVEKNEEQSQQQSTNSAILVHKKTVKGRQDKKETVKAASDNQTSQKKEEVVEKIKQKNEGPEHYAYNKDGEWDQIPIFSIDSWPQLCQEGKQQSPINIDPQSLMVLEDGEINVYYNQLNQDPWLFNDNIKLTLGGLFGTIEFQEHLYDANFIHFHFPSEHTFGADNKRADIEFQIEHVSLYGQKLIVSILGDLSDTQTNPFLEAMGISGLEFSKFQKIDEKVQLQPRLVSLDILTDSLESFYRYEGSFTHPPCTEGVTWIISRDHVQINKIQLDNLRSLLGLKHNVRGTHDINGREIFVK
